Data from the supplement of paper PMC7646827.
Counter-ions that a name gives are not always drawn. Repeats are few or missing, and single values can be far off.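 All cells are established human bladder cancer lines, one of them grown from a patient-derived xenograft. Viability was read by a luminescent ATP assay as percent inhibition versus vehicle over a seven-point dilution series; the paper calls scores above 59 very active, 30–59 active, 21–29 semi-active, 9–20 low active and below 9 inactive.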

Key:
Assay in all cases: drug sensitivity score DSS3 (score 0-100); higher = more sensitive; extreme values may be limits of the assay
Conditions in all cases: culture: 3D, ultra-low attachment; treatment time: 5 days
UM-UC-15 = tested on: UM-UC-15
SW780 = tested on: SW780
SCaBER = tested on: SCaBER
UM-UC-12 = tested on: UM-UC-12
UM-UC-3 = tested on: UM-UC-3
TCCSUP = tested on: TCCSUP
J82 = tested on: J82
UM-UC-6 = tested on: UM-UC-6
UM-UC-1 = tested on: UM-UC-1
T-24 = tested on: T-24
UM-UC-9 = tested on: UM-UC-9
5637 = tested on: 5637
UM-UC-14 = tested on: UM-UC-14
UM-UC-18 = tested on: UM-UC-18
UM-UC-17 = tested on: UM-UC-17
BC8149 = tested on: BC8149
UM-UC-5 = tested on: UM-UC-5

SMILES	drug sensitivity score DSS3 (UM-UC-15)	drug sensitivity score DSS3 (SW780)	drug sensitivity score DSS3 (SCaBER)	drug sensitivity score DSS3 (UM-UC-12)	drug sensitivity score DSS3 (UM-UC-3)	drug sensitivity score DSS3 (TCCSUP)	drug sensitivity score DSS3 (J82)	drug sensitivity score DSS3 (UM-UC-6)	drug sensitivity score DSS3 (UM-UC-1)	drug sensitivity score DSS3 (T-24)	drug sensitivity score DSS3 (UM-UC-9)	drug sensitivity score DSS3 5637	drug sensitivity score DSS3 (UM-UC-14)	drug sensitivity score DSS3 (UM-UC-18)	drug sensitivity score DSS3 (UM-UC-17)	drug sensitivity score DSS3 (BC8149)	drug sensitivity score DSS3 (UM-UC-5)
Fc1cc(-c2cccc3ncc(-c4cnn(C5CCNCC5)c4)nc23)cc(F)c1CN1CCOCC1 [NVP-BSK805 2HCl] (max dose 10000 nM)	0	2.15	2.41	1.82	0	0	0	0	2.05	0	0.711	2.55	0.983	1.35	0.601	0.225	0
OC(CNCC(O)C1CCc2cc(F)ccc2O1)C1CCc2cc(F)ccc2O1 (configuration not stated) [Nebivolol HCl] (max dose 10000 nM)	1.56	0	0	0	0	0	0	0	0	0	0	0	0	0	0	0	0
CN1C(=O)NC(Cc2c[nH]c3c(Cl)cccc23)C1=O (configuration not stated) [Nec-1s (7-Cl-O-Nec1)] (max dose 10000 nM)	1.6	1.37	1.77	1.97	0	0.236	0.142	0.105	0.219	0	1.61	0.221	0.6	3.66	0.227	1.04	1.29
CN1C(=O)C(Cc2c[nH]c3ccccc23)NC1=S (configuration not stated) [Necrostatin-1] (max dose 10000 nM)	0	0.284	1.08	2.91	0.646	0	0	0	0	0	1.73	5.29	0	0.939	0	3.63	1.91
CCCCN(Cc1ccc(C(=O)NO)cc1)C(=O)Nc1ccccc1 [Nexturastat A] (max dose 10000 nM)	4.51	0	6.8	0.722	13.1	1.89	0	0.278	0	0	0	0.451	0.158	0	0.00126	2.49	0
Cc1cn(-c2cc(NC(=O)c3ccc(C)c(Nc4nccc(-c5cccnc5)n4)c3)cc(C(F)(F)F)c2)cn1 [Nilotinib (AMN-107)] (max dose 10000 nM)	0	0	0.978	7.13	8.31	7.53	0.322	0	2.17	1.98	0.0162	3.47	0	3.38	0	9.84	0
COC(=O)c1ccc2c(c1)NC(=O)/C2=C(\Nc1ccc(N(C)C(=O)CN2CCN(C)CC2)cc1)c1ccccc1 [Nintedanib (BIBF 1120)] (max dose 10000 nM)	0	0	8.46	18.2	7.59	1.81	0.511	0.522	0	16.7	0	3.33	1.2	2.66	0	0	0
NC(=O)c1cccc2cn(-c3ccc([C@@H]4CCCNC4)cc3)nc12 [Niraparib] (max dose 15400 nM)	0	4.78	1.49	2.22	1.56	5.96	0	1.93	3.42	0.0499	0	3.48	1.14	0	0.613	7.71	0
COC(=O)Nc1nc2cc(C(=O)c3cccs3)ccc2[nH]1 [Nocodazole] (max dose 10000 nM)	0	9.24	0.124	4.63	11.3	21.6	0	17.5	13.9	0.334	3.84	19.8	13	0	24.2	7.52	0
COc1ccc(C2=N[C@@H](c3ccc(Cl)cc3)[C@@H](c3ccc(Cl)cc3)N2C(=O)N2CCNC(=O)C2)c(OC(C)C)c1 [Nutlin-3] (max dose 10000 nM)	0	0	0	0	0	0	0	0	0	0	0	0	0	0.255	0	0	0
COc1cccc2cc(-c3nc([C@H]4CC[C@H](C(=O)O)CC4)n4ncnc(N)c34)[nH]c12 [OSI-027] (max dose 10000 nM)	0	1.04	5.98	0	0	10.9	2.9	10.1	4.36	0	3.09	7.02	6.84	4.16	0	24.3	14

Some entries already given, reduced to drug sensitivity score DSS3 (UM-UC-3):

| SMILES | drug sensitivity score DSS3 (UM-UC-3) |
| --- | --- |
| Cc1cn(-c2cc(NC(=O)c3ccc(C)c(Nc4nccc(-c5cccnc5)n4)c3)cc(C(F)(F)F)c2)cn1 [Nilotinib (AMN-107)] (max dose 10000 nM) | 8.31 |
| COC(=O)c1ccc2c(c1)NC(=O)/C2=C(\Nc1ccc(N(C)C(=O)CN2CCN(C)CC2)cc1)c1ccccc1 [Nintedanib (BIBF 1120)] (max dose 10000 nM) | 7.59 |
